The list shows a part of the results. Most entries show no effect beyond the scatter of the controls.
The targets below were run with CN[C@@H]1C[C@H]2O[C@@](C)([C@@H]1OC)n1c3ccccc3c3c4c(c5c6ccccc6n2c5c31)C(=O)NC4 [staurosporine] (assay: log2 fold change of tryptic peptide abundance, ligand vs vehicle (limited proteolysis) (log2 ratio); higher = more trypsin-susceptible (destabilized)). Conditions: ligand concentration: 20 uM; sample: mouse liver crude lysate; replicate design: treated separately.

Chains of the proteins cited; added tags and fusions are not shown. Lines headed by an entry give the natural chain unless they say otherwise; changes in a name come on top.
UniProt Q9JLR9: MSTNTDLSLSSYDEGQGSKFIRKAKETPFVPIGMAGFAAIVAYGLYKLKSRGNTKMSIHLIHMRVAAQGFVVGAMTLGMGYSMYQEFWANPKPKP
UniProt Q9ESF1: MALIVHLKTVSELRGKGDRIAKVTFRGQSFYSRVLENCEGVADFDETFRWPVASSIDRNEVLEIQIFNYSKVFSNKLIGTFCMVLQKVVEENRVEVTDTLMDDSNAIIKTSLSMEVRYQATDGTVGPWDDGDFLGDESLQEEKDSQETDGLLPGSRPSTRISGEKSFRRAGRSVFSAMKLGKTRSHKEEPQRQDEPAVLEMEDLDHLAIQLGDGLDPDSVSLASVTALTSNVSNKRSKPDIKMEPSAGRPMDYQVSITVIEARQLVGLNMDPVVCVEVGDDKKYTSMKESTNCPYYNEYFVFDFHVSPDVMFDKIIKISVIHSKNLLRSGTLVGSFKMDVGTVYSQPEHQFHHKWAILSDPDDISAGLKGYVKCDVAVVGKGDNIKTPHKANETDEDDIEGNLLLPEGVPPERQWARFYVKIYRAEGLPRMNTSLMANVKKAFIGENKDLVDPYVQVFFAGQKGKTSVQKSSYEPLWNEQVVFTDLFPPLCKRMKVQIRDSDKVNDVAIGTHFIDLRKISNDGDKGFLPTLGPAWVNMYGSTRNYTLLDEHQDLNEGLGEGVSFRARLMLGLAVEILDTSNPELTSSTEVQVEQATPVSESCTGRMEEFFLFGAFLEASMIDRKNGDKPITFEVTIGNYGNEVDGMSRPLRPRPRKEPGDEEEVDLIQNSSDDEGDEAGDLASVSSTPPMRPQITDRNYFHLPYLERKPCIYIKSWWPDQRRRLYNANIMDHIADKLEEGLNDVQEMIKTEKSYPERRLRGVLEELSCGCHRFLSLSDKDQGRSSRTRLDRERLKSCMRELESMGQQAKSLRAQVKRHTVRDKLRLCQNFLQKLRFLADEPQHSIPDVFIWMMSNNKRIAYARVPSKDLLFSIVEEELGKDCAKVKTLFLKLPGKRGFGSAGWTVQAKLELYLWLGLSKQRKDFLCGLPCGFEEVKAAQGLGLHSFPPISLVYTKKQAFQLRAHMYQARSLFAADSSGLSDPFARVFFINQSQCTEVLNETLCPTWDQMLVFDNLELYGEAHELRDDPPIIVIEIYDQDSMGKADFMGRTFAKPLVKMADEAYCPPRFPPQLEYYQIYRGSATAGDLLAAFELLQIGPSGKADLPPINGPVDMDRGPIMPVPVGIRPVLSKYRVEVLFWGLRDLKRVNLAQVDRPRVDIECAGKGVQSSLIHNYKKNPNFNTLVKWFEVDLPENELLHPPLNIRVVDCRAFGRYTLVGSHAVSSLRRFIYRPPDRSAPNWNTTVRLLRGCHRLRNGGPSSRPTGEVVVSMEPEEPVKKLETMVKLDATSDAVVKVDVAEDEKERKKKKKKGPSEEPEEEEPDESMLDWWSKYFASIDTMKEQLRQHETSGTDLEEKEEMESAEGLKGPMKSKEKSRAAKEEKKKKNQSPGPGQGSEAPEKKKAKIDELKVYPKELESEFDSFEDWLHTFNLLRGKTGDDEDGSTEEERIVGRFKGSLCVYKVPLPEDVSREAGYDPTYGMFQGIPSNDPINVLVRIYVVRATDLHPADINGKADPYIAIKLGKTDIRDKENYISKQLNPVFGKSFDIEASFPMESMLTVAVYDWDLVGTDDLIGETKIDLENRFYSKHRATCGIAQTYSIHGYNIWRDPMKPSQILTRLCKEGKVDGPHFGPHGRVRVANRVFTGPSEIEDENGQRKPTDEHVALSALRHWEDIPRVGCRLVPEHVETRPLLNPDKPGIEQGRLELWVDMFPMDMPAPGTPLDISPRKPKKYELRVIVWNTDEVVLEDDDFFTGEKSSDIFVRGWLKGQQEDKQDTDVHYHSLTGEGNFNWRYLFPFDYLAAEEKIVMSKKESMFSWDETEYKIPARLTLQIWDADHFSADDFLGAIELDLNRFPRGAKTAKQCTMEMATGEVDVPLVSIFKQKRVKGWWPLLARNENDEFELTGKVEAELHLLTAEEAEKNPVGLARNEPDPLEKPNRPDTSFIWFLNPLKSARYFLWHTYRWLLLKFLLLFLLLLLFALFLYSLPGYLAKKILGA
UniProt Q9JLZ3: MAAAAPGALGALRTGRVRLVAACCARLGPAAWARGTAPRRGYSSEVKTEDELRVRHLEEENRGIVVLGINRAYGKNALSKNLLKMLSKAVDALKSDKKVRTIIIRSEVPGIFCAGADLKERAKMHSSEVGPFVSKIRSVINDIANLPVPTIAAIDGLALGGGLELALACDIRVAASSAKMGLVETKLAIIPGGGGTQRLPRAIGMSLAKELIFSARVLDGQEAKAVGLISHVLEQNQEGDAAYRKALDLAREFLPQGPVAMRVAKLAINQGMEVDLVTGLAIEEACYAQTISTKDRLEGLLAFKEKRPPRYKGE
UniProt Q9JIG7, whole entry: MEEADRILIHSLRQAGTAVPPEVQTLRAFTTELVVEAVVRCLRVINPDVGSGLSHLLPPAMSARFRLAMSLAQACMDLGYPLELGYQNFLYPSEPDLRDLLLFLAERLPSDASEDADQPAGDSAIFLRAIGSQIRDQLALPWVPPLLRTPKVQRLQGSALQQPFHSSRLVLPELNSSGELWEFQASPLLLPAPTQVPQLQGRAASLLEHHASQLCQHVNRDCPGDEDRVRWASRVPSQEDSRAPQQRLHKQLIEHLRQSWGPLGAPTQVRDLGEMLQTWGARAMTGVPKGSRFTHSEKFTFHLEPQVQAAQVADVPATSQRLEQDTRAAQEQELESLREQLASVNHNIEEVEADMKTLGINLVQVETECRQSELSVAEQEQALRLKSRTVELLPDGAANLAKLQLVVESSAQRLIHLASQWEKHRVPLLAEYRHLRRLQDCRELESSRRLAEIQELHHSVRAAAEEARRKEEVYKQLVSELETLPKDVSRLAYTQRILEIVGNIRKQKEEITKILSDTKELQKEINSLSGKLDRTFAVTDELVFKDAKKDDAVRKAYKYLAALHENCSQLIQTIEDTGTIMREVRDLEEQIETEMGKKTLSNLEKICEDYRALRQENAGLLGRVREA
UniProt Q9ES97: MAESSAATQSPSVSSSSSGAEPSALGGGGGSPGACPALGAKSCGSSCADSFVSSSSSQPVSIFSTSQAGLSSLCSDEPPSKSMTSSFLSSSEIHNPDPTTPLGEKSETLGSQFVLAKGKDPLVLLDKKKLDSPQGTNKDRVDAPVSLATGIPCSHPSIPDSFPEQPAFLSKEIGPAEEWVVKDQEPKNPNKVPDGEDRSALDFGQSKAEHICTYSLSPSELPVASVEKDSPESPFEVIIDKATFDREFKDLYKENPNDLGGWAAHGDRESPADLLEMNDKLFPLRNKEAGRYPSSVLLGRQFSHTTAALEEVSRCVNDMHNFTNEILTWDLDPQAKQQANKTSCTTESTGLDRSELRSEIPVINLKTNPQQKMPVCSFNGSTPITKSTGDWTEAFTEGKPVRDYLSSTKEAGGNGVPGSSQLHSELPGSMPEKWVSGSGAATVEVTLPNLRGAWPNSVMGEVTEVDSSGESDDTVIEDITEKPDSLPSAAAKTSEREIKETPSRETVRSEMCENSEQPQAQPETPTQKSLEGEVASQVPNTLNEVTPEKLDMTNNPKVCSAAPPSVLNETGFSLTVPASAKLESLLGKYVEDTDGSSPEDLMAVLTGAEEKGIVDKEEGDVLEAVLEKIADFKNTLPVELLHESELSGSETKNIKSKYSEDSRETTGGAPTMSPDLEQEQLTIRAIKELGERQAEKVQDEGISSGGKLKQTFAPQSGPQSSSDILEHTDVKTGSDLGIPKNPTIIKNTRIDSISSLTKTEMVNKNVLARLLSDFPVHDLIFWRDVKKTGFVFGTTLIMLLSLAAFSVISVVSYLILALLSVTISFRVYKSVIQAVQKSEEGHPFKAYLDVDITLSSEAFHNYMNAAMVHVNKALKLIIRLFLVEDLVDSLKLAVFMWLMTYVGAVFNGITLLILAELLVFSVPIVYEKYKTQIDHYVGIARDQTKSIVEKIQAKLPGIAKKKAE
UniProt Q9JIK5: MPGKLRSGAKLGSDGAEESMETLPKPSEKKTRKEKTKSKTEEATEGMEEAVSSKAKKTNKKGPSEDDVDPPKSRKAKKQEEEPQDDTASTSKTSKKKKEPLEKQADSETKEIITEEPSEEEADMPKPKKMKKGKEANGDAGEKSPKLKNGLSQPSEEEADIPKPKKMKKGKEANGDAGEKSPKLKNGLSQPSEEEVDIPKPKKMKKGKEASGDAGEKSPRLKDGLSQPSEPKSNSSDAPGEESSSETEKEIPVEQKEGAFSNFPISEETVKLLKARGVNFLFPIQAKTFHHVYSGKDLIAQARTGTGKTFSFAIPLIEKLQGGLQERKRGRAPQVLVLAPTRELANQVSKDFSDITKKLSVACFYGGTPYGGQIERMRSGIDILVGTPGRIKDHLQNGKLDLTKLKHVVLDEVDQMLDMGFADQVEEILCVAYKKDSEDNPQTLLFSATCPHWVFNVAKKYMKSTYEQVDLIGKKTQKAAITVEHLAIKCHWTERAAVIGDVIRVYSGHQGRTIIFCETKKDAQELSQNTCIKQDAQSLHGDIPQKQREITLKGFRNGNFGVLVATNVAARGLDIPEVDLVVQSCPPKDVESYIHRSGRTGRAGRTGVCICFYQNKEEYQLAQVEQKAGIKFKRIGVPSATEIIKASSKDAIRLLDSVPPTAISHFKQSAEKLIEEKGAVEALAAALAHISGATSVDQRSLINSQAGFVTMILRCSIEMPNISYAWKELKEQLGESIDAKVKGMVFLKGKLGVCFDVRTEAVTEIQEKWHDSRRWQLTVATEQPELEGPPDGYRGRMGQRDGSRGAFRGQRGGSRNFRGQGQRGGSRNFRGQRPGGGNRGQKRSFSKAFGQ
UniProt Q9QUN3: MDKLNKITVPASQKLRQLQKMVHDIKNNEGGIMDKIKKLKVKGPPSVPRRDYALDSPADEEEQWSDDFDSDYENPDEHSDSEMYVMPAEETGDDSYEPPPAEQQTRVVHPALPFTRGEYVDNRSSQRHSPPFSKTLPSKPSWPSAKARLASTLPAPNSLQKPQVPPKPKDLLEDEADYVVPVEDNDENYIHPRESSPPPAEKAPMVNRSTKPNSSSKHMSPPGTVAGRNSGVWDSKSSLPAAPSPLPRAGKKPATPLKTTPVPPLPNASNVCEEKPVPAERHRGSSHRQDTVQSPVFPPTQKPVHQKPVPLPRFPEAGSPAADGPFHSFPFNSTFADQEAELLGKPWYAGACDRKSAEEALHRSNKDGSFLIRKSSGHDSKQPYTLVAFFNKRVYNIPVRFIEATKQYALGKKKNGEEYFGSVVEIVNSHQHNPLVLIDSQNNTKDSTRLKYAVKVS
UniProt Q9JI78: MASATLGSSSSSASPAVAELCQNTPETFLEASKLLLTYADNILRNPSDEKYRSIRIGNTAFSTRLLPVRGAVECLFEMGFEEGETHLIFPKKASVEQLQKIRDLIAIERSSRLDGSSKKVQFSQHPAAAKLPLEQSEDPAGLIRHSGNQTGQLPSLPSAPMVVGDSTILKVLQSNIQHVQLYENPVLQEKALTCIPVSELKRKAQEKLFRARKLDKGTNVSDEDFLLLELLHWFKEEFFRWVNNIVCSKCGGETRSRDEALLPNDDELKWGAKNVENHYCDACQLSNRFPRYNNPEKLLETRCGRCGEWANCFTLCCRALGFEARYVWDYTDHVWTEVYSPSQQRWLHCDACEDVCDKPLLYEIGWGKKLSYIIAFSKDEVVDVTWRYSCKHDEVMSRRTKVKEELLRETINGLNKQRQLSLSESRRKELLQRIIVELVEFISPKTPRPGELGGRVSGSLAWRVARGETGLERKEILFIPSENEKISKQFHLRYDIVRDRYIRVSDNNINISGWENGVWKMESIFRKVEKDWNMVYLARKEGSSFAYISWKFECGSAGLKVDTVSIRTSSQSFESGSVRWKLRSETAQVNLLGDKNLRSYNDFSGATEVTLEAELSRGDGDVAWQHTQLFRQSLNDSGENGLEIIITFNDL
UniProt Q9JLC3, whole entry: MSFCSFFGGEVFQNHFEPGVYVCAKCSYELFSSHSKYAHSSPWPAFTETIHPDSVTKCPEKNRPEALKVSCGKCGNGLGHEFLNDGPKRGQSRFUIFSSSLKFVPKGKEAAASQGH
UniProt Q9ESP1: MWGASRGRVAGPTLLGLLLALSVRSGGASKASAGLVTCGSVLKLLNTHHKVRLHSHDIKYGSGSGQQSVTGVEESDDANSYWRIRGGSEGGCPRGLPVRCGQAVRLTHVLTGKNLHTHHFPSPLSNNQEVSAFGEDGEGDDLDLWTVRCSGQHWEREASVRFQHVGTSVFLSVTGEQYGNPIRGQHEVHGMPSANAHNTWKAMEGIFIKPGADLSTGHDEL
UniProt Q9EST5: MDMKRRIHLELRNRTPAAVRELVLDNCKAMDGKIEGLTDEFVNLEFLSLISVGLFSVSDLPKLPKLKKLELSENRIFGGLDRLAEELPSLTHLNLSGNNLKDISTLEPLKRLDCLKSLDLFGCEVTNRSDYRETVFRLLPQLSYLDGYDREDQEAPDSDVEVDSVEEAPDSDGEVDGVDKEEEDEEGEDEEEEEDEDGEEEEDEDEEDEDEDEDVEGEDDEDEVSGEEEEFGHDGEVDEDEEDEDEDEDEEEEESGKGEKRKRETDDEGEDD

| Target | log2 fold change |
| --- | --- |
| UniProt Q9QUG9 (peptide sequence: FPILGVHLK, peptide start residue: 301) | 0.353 |
| UniProt Q9QUK9 (peptide sequence: TLNNDIMLIK, peptide start residue: 103) | 0.0565 |
| UniProt Q9JLR9 (peptide sequence: MSIHLIHMR, peptide start residue: 56) | -0.158 |
| UniProt Q9ERU3 (peptide sequence: NVDEKPYK, peptide start residue: 49) | -0.289 |
| UniProt Q9JMA1 (peptide sequence: LQEEITK, peptide start residue: 294) | -0.345 |
| UniProt Q9JIY7 (peptide sequence: LSVSSQHR, peptide start residue: 142) | -0.114 |
| UniProt Q9JLV1 (peptide sequence: GYIPIPVIHEQNITR, peptide start residue: 210) | -0.298 |
| UniProt Q9ESF1 (peptide sequence: KAKIDELK, peptide start residue: 1402) | -0.101 |
| UniProt Q9JLZ3 (peptide sequence: EFLPQGPVAMR, peptide start residue: 252) | -0.185 |
| UniProt Q9JIG7 (peptide sequence: LQGSALQQPFHSSR, peptide start residue: 155) | 0.183 |
| UniProt Q9JIY0 (peptide sequence: ASSLSRPWEKPDK, peptide start residue: 236) | -0.0355 |
| UniProt Q9QWV9 (peptide sequence: FYMIQSFTQFHR, peptide start residue: 69) | -0.961 |
| UniProt Q9JK24 (peptide sequence: LPAEDEVLLQK, peptide start residue: 63) | -0.136 |
| UniProt Q9ESE1 (peptide sequence: LLSQTMKDHLVR, peptide start residue: 1887) | 0.255 |
| UniProt Q9ES97 (peptide sequence: SIVEKIQAK, peptide start residue: 946) | 0.373 |
| UniProt Q9JMC8 (peptide sequence: WRPHSPNVSNHSICK, peptide start residue: 462) | -0.193 |

For convenience, some entries already given.

| Target | log2 fold change |
| --- | --- |
| UniProt Q9JLR9 (peptide sequence: MSIHLIHMR, peptide start residue: 56) | -0.158 |
| UniProt Q9ERU3 (peptide sequence: NVDEKPYK, peptide start residue: 49) | -0.289 |

(cont.)

| Target | log2 fold change |
| --- | --- |
| UniProt Q9JHS3 (peptide sequence: FILMDCMEGR, peptide start residue: 71) | 0.214 |
| UniProt Q9JMB0 (peptide sequence: DKPVTVSLKDFQCEDHISK, peptide start residue: 174) | -0.468 |
| UniProt Q9JHR9 (peptide sequence: DLQPHSVIQR, peptide start residue: 62) | -0.000332 |
| UniProt Q9JIK5 (peptide sequence: LGSDGAEESMETLPKPSEKK, peptide start residue: 11) | -0.338 |
| UniProt Q9JIS8 (peptide sequence: LVSYTNLTQGAKEHEEAESGEGGR, peptide start residue: 86) | -0.308 |
| UniProt Q9QUN3 (peptide sequence: VVHPALPFTR, peptide start residue: 107) | 0.37 |
| UniProt Q9JJY4 (peptide sequence: YMRDPTFVR, peptide start residue: 258) | 0.303 |
| UniProt Q9JMG7 (peptide sequence: SSSEGGDAGNDTR, peptide start residue: 177) | -0.261 |
| UniProt Q9JI78 (peptide sequence: YSCKHDEVMSR, peptide start residue: 388) | 0.436 |
| UniProt Q9JI19 (peptide sequence: TFHMLER, peptide start residue: 62) | -0.105 |
| UniProt Q9JLC3 (peptide sequence: CGNGLGHEFLNDGPKR, peptide start residue: 74) | -0.846 |
| UniProt Q9ESK4 (peptide sequence: DLCHMTNGIDDCDDQPPKEKR, peptide start residue: 163) | 0.49 |
| UniProt Q9ESN6 (peptide sequence: RKENPIEDDLIFR, peptide start residue: 463) | 0.119 |
| UniProt Q9ESP1 (peptide sequence: LTHVLTGK, peptide start residue: 106) | -0.264 |
| UniProt Q9EST5 (peptide sequence: DISTLEPLKR, peptide start residue: 102) | 0.114 |
